Test results: article doi:10.1101/2021.06.06.447232
These are yes or no findings as the source states them, for the method shown. In cells and extracts the contact can be indirect. These calls come from enrichment with a bait or labelling near it, and not all partners need be listed.

Amino acid sequences for entries named in this document (tags omitted). A change or cut given only in a name is not applied to a line headed by its entry. Residues count along the entry.
UniProt P16870: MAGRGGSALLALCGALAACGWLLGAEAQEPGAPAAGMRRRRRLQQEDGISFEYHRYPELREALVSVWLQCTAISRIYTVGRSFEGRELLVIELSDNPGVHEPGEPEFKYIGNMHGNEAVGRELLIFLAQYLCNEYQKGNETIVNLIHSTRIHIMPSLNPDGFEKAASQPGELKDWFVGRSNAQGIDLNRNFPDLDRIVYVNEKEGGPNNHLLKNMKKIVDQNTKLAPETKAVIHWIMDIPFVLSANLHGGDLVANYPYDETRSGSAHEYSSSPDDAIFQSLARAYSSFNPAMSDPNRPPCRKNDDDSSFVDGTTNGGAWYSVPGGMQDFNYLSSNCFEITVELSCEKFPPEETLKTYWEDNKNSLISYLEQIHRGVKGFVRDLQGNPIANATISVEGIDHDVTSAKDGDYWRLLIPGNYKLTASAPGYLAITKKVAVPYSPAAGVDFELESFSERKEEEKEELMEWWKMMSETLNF
UniProt P11021, residues 19-654: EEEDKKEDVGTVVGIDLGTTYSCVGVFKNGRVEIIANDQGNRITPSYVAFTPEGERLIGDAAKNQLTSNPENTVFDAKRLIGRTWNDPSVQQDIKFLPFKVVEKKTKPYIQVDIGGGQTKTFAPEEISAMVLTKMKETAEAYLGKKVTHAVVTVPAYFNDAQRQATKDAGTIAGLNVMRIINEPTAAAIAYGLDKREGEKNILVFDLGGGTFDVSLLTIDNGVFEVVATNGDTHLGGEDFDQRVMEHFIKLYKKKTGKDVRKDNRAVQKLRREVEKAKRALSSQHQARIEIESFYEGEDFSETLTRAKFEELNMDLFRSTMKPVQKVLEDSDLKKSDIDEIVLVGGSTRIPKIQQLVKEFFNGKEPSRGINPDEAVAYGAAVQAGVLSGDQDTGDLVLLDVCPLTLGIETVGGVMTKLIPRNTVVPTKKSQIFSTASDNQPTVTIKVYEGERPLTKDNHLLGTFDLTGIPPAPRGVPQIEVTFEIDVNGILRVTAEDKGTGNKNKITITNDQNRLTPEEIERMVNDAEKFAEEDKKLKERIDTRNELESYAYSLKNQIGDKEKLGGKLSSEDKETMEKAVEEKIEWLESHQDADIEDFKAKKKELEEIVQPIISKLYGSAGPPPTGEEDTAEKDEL

Target: full length CPE-GFP (carboxypeptidase E tagged at the C-terminal with GFP) (UniProt P16870)
Assay: affinity purification with mass spectrometry

binding: binds
Substance: GRP78/BIP (from UniProt P11021 19-654)
